The source of these data is paper PMC10314917.

Chains of the proteins cited; added tags and fusions are not shown. Lines headed by an entry give the natural chain unless they say otherwise; changes in a name come on top.
UniProt Q9UBU8: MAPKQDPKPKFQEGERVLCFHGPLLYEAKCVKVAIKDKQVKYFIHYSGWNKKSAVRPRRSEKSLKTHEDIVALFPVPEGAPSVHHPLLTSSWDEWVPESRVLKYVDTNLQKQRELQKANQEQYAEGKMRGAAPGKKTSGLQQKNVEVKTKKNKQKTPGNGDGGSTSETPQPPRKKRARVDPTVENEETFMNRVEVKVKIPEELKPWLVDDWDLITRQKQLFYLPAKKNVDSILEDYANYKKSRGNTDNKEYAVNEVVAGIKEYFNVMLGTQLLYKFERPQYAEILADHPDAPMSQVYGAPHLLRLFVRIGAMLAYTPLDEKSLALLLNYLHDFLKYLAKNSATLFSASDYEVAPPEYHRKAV
UniProt Q16531: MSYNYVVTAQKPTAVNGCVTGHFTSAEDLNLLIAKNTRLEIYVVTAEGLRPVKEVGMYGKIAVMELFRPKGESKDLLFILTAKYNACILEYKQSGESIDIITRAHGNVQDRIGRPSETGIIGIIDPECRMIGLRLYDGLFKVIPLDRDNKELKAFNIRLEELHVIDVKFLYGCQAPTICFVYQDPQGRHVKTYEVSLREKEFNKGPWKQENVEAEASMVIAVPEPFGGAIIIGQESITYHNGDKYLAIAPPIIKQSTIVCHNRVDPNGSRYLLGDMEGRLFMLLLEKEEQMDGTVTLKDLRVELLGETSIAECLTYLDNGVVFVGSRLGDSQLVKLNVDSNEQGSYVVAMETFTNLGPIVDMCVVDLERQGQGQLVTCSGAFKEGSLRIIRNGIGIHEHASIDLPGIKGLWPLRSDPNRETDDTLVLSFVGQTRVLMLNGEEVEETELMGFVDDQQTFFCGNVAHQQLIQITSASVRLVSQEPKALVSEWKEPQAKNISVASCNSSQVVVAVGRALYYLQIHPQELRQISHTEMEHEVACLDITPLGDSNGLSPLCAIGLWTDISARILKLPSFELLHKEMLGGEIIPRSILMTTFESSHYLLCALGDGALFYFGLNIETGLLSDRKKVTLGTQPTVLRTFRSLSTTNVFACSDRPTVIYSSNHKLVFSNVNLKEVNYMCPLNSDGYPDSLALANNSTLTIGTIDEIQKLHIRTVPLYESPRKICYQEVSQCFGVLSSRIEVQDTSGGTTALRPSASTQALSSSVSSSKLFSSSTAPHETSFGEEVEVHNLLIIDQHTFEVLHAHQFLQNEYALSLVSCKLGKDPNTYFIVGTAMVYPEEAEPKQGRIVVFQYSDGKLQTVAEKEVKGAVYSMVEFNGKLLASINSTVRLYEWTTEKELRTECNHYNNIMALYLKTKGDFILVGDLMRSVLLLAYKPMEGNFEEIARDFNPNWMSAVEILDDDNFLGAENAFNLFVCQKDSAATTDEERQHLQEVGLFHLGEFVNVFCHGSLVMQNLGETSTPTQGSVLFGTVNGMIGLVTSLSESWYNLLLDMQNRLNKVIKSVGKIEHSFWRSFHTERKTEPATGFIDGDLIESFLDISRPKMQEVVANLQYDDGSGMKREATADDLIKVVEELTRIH
UniProt Q9Y5B9: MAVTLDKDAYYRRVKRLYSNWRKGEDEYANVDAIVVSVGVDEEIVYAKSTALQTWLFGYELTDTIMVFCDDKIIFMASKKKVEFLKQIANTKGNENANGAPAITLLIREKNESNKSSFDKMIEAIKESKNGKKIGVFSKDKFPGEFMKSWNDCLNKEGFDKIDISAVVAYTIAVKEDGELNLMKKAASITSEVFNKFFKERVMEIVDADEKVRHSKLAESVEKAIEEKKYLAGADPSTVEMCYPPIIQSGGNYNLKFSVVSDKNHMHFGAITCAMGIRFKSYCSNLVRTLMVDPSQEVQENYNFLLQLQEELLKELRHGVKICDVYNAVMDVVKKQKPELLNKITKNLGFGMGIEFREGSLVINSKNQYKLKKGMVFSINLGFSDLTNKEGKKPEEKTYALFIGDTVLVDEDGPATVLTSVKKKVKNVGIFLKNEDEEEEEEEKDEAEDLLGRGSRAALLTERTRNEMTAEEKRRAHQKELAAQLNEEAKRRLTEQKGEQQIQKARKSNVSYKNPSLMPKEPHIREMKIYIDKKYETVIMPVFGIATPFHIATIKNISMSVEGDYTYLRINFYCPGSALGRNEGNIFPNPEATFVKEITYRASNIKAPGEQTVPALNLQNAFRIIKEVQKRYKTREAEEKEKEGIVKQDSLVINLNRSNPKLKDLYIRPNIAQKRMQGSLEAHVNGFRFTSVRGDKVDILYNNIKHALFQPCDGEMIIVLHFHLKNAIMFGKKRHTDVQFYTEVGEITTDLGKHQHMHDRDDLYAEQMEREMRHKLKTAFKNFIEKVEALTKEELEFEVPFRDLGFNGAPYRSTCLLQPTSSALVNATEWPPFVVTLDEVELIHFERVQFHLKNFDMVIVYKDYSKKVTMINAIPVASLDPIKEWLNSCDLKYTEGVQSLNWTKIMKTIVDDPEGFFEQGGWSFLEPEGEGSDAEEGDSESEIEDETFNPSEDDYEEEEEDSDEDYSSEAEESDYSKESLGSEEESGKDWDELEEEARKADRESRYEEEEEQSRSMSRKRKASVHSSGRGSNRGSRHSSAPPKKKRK

No constants are given. Whether binding was seen depends on the method and setting. Binding seen in cells or lysates may run through a third protein. Some results given as binding are weak or reduced against the parent protein; the word gives no strength.

This test deals with MRG15 (MORF4-Related Gene on chromosome 15) conjugated with the Flag tag (human) (UniProt Q9UBU8). Nature of the test: co-IP; anti-Flag M2 affinity gel incubated with 500 µg whole-cell lysate (NETN buffer) of transfected U2OS cells overnight at 4 °C; eluted with 3x Flag peptide; eluates analysed by immunoblotting. A general note: A western blot detects proteins with antibodies after separation by electrophoresis.

As to “DDB1-DDB2 (from UniProt Q16531 1-1140; Q92466 1-427) (complex)”, the binding result is recorded as “binds”. With “SPT16 (SuPpressor of Ty 16) (from UniProt Q9Y5B9 1-1047)” the entry was “binds”.
